For at least one entry, the source does not settle the construct or the ends of the probe. Negatives hold for the conditions tested. A weaker result is weaker than the reference pair of the same experiment.

Chains of the proteins cited; added tags and fusions are not shown. A line that says so, or that is headed by a name, gives the form on record, which may keep a tag or linker.
Myb1 (tobacco Myb homologue) (Nicotiana tabacum), one chain, as listed by the source: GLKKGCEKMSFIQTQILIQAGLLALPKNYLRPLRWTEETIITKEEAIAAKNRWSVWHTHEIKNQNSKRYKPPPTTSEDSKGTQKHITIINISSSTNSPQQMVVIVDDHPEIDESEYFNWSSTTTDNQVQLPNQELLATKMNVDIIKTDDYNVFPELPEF

The data set has as its system Myb1 (tobacco Myb homologue) (Nicotiana tabacum). The data set is described as follows: EMSA. To be noted: purified recombinant protein, label: 32P. Background: In EMSA bound probe runs differently from free probe, usually more slowly.

On to “CGGAATTCCCTAACTGACGCATCGATGGGA (double strand) [MBSI probe]”, for which, for the setting “only very weakly bound, less effective competitor than MBSII”, the binding result was “binds more weakly”.
Consider “CGGAATTCTGTTGCCTATGCATCGATGGGA (double strand) [MBSIIm probe]”, for which, where the note is “variant of MBSII probe”, the binding result is given as “no binding”.
For the sequence “CGGAATTCTGTTTGGTATGCATCGATGGGA (double strand) [MBSII probe]”, the binding result (preferential binding, effectively self-competed by unlabeled MBSII, 200 ng Myb1, 2 ug poly(dI-dC), 4 C, pH 8.0) is “binds”.
Consider “CGGAATTCCCTCCCTGACGCATCGATGGGA (double strand) [MBSIm probe]”, for which, for the setting “variant of MBSI probe”, the binding result is “no binding”.

Source of the values: patent publication US5939601.
